Source: PMC7504215, “Copper(II) Complexes with Mixed Heterocycle Ligands as Promising Antibacterial and Antitumor Species” (Molecules, 2020)

Test system: B16 (melanoma) tumor cells
Assay: MTT cell viability assay
Format: cell-based, Mouse
Conditions: for TI (therapeutic index) 48 h: ratio IC50 BJ / IC50 B16, 48 h, where no toxic effect, two times the highest tested concentration used
Description: The cytotoxicity of ligand and copper(II) complexes was tested on normal BJ cell as well as on B16 (melanoma) tumor cells, which were grown for 48 h in culture medium containing the tested complexes in 0–25 μg/mL concentration range.
Human fibroblast cells (BJ-ATCC CRL-2522, Manassas, VA, USA) were grown in minimal essential medium (MEM) supplemented with 2 mM L-Glutamine, 10% fetal calf serum (FCS), 100 units/mL of penicillin and 100 µg/mL of streptomycin at 37 °C in a humidified incubator under an atmosphere containing 5% CO2. Mouse melanoma cells (B16-ATCC CRL-6475, Manassas, VA, USA) were grown in DMEM (Dulbecco’s Modified Eagle Medium) supplemented with similar reagents as MEM. All cell cultivation media and reagents were purchased from Biochrom AG (Berlin, Germany) and Sigma-Aldrich (Darmstadt, Germany).
Cell viability was evaluated using 3-(4,5-dimethylthiazol-2-yl)-2,5-diphenyltetrazolium bromide (MTT) assay, as described previously. First, the cells were seeded in 96-well plates (20,000 cells/well) and cultured for 24 h in medium. After overnight incubation, the medium was changed and the investigated sample in concentration varying from […] was added for 24 h. The negative control was represented by cells cultivated in medium without the investigated compounds. Following incubation, the medium was changed and the MTT solution was added to each well to a final concentration of 1 mg/mL and incubated for additional 4 h, at 37 °C. Finally, the medium was collected and DMSO was used to dissolve the insoluble formazan product. The absorbance of the samples was recorded at 570 nm using a plate reader Mithras 940 (Berthold). The data were corrected for the background and the percentage of viable cells was obtained using the equation:Cell viability = [(A570 of treated cells)/(A570 of untreated cells)] × 100%
The half-maximal inhibitory concentration (IC50) was determined by fitting the data with a logistical sigmoidal equation using the software Origin 8.1 from Microcal Inc. (Los Angeles, CA, USA).

SMILES | TI (therapeutic index) 24 h (ratio IC50 BJ / IC50 B16, 24 h) | TI (therapeutic index) 48 h
Cc1cc(-c2ccccc2)nc2ncnn12.[Cu+2].[O-][Cl+3]([O-])([O-])[O-].[O-][Cl+3]([O-])([O-])[O-].c1cnc2c(c1)ccc1cccnc12.c1cnc2c(c1)ccc1cccnc12 [(2), [Cu(phen)2(pmtp)](ClO4)2] | 0.95 | 0.88
Cc1cc(-c2ccccc2)nc2ncnn12.[Cu+2].[O-][Cl+3]([O-])([O-])[O-].[O-][Cl+3]([O-])([O-])[O-].c1ccc(-c2ccccn2)nc1.c1ccc(-c2ccccn2)nc1 [(1), [Cu(bpy)2(pmtp)](ClO4)2] |  | 3.23
